Reference: patent US20260167715A1, “PD-1+CD38HICD8+ KILLER T CELLS AND USES THEREOF” (GEORGETOWN UNIVERSITY, priority 2022, published 2026)
At least one compound was matched to its structure with a doubt left. No end group written: not given here.

Assays:
wild-type mice = assay: BK-mediated induction of PD1+CD38hi CD8 T cells in vivo; parameters: species or system mouse; conditions: BK 60 mg/kg daily intravenously for 3 days
human CD8 T cells = assay: BK induction of PD1+CD38hi CD8 T cells in vitro, human CD8 T cells; assay type: cell-based; conditions: 3-15 μM, 48 hours
mouse CD8 T cells = assay: BK induction of PD1+CD38hi CD8 T cells in vitro, mouse CD8 T cells; assay type: cell-based; conditions: 50 nM-1000 nM, 48 hours
phospho-CREB (p-CREB) = assay: phospho-CREB in BDK-treated CD8 T cells (Western blot); assay type: cell-based

## RPPGFSPFR [BDK, bradykinin]
wild-type mice
  number of PD1+CD38hi CD8+ T cells in the lungs: significantly increased
Human CD8 T cells
  generation of PD1+CD38hi CD8 T cells: led to the generation of PD1^+CD38^hiCD8 T cells
Mouse CD8 T cells
  generation of PD1+CD38hi CD8 T cells: led to the generation of PD1^+CD38^hiCD8 T cells
phospho-CREB (p-CREB)
  p-CREB expression: increased p-CREB expression
